Results: US8288352B2 (priority 2004, dated 2012)

Assay: general procedure: solution-phase peptide synthesis; DEPC/DIEA; HATU/DIEA or pyridine
Settings: for conjugation yield: conjugation step

Row | Substance | conjugation yield [% yield] | step yield (late stage modification step) [% yield] | other results
1 | MC-4-Abz-Val-Dil-Dap-Phe-OtBu | 42 |  | 
2 | MC-Val-Cit-4-Abz-Val-Dil-Dap-Phe-OtBu | 53 |  | 
3 | 4-Abz-Val-Dil-Dap-Phe-OtBu |  | 64 | 
4 | Fmoc-4-Abz-Val-Dil-Dap-Phe-OtBu |  |  | step yield (coupling step): 48% yield
5 | 4-Abz-Val-Dil-Dap-Phe-OMe |  |  | step yield (late stage modification step, on Val-Dil-Dap-Phe-OMe): 42% yield
6 | Val-Dil-Dap-Phe-OMe |  | 97 | 
7 | Cbz-Val-Dil-Dap-Phe-OMe |  |  | step yield (coupling step): 59% yield
8 | MC-Val-Cit-4-Abz-Val-Dil-Dap-Phe-OMe | 2.8 |  | 
9 | MC-Val-Cit-4-Abz-Val-Dil-Dap-Phe |  | 91 | 
